US20140227292A1 (PROTHENA BIOSCIENCES, published 2014)
No constants are given. Whether binding was seen depends on the method and setting. Some results given as binding are weak or reduced against the parent protein; the word gives no strength. For some of these results: Where a sequence is shown, tags or fusion partners need not be part of it.

Columns and labels:
[1] = molecular target: T1, human MCAM (melanoma cell adhesion molecule), expressed on transfected CHO cells (human) (UniProt P43121); assay: flow cytometry on MCAM transfected cells
T1 sequence: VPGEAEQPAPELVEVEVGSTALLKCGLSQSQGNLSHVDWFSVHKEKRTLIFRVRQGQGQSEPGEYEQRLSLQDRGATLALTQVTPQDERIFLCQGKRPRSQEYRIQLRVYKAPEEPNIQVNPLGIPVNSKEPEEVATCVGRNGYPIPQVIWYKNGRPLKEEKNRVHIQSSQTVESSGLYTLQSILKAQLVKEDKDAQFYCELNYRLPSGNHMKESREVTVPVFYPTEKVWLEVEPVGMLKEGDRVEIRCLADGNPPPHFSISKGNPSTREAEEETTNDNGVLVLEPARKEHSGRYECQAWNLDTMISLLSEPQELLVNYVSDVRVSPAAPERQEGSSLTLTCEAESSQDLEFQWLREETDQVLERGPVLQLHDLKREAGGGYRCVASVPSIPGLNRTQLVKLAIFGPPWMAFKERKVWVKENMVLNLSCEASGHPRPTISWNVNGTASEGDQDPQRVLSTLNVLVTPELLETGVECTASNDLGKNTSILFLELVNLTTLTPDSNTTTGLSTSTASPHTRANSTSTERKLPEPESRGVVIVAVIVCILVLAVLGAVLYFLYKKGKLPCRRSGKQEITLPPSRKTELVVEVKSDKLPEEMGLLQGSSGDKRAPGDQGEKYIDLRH

[2] = molecular target: T2, Murine MCAM domain 1 (Ig1) with human IgG Fc tag (mouse; human) (UniProt Q8R2Y2); assay: ForteBio Octet Red, Fc-tagged domains on anti-human IgG Fc sensors
T2 sequence (looked up): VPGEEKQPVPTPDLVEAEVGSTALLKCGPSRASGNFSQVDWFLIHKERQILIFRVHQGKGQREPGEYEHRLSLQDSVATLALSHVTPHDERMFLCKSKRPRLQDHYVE

[3] = molecular target: T3, Murine MCAM domain 1 and 2 (Ig1-2A) with human IgG Fc tag (mouse; human) (UniProt Q8R2Y2); assay: as above
T3 sequence (looked up): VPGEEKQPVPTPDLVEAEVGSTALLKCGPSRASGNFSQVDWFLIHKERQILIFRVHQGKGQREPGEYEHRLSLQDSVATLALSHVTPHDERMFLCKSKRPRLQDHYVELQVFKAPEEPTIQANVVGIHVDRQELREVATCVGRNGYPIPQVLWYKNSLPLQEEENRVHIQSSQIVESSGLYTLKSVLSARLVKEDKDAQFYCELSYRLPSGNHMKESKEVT

[4] = molecular target: T2, Murine MCAM domain 1 (Ig1) with human IgG Fc tag (mouse; human); assay: non-denaturing Western blot on individual Fc domains of MCAM; confirmed by ForteBio

Measured: binding

B1: anti-MCAM monoclonal antibody clone 17 (antibody, V domains shown)
VH: EVQLVESGGGLVQPGRSLKLSCAASGFTFSNYYMAWVRQAPTKGLEWVASISFEGNRNHYGDSVKGRITISRDNAKSTLYLQMTSLRPEDTATYYCARHRGYSTNFYHDVLDAWGQGALVTVSS
VL: DVQMTQSPSYLATSPGESVSISCKASKNIDTYLAWYQEKPGKTNKLLIYSGSTLQSGTPSRFSGSGSGTDFTLTIRNLESEDFAVYYCQQHNEYPLTFGSGTKLEIKR
binds: [1] | [2] | [3] | [4]
